Data as given in the supplement of paper PMC10849652.
The list shows a part of the results.

Sequences of proteins named here, by UniProt entry; tags and fusion partners are left off. A change or cut given only in a name is not applied to a line headed by its entry.
UniProt Q8N2K1: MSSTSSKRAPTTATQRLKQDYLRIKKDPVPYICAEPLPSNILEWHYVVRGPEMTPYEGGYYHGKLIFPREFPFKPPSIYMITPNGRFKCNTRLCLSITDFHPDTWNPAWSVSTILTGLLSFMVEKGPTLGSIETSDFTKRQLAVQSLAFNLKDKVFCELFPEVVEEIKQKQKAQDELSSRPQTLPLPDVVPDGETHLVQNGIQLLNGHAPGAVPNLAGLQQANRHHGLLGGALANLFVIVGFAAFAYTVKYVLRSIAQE
UniProt O43396: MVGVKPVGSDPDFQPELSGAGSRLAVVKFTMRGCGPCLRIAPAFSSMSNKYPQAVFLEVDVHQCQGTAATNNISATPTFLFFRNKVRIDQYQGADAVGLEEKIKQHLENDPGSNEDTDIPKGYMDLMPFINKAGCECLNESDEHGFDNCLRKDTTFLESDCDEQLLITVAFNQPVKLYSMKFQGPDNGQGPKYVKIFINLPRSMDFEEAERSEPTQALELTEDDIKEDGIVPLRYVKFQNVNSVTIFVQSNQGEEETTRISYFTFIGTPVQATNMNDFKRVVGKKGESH
UniProt P23258, whole entry, looked up: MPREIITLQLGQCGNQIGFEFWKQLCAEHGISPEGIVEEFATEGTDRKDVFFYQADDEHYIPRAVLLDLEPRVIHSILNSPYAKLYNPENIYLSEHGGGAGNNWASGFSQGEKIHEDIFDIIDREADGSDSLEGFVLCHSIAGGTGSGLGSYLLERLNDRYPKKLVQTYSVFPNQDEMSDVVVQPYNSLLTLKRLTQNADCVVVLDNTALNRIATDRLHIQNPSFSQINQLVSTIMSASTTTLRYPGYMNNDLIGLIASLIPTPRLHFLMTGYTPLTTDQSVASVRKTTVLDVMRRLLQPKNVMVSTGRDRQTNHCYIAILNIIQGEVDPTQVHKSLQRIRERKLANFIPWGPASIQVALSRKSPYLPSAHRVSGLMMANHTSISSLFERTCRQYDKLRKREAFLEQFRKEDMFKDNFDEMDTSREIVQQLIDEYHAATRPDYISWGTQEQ
UniProt P22314: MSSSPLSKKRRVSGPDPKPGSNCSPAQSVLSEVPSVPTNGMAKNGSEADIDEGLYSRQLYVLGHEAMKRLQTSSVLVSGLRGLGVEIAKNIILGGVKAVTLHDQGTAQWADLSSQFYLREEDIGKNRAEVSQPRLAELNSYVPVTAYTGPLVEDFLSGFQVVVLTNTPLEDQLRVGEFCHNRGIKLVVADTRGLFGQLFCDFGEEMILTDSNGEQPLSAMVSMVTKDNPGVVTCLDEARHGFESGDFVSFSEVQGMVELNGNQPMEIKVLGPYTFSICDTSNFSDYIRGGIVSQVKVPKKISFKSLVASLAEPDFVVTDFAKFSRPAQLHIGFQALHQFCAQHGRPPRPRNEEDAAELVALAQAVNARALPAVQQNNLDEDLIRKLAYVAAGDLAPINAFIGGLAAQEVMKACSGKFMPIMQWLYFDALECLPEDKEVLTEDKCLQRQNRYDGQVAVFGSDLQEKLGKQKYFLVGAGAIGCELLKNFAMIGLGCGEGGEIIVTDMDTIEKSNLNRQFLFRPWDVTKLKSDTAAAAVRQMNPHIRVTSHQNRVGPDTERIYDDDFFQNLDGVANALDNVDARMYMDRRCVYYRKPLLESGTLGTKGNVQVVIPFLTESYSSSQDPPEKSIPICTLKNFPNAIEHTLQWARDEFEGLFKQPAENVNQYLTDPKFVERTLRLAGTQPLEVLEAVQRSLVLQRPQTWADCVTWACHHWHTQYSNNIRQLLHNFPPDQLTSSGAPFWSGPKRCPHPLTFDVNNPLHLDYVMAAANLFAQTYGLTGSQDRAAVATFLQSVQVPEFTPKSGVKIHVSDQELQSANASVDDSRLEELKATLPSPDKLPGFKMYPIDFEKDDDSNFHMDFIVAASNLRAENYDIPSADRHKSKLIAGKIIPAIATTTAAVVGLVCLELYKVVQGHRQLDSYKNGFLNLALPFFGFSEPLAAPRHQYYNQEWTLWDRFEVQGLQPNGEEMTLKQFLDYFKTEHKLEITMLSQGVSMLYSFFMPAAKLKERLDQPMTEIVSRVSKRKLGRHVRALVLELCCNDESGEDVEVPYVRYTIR
UniProt Q9UGJ1, whole entry, looked up: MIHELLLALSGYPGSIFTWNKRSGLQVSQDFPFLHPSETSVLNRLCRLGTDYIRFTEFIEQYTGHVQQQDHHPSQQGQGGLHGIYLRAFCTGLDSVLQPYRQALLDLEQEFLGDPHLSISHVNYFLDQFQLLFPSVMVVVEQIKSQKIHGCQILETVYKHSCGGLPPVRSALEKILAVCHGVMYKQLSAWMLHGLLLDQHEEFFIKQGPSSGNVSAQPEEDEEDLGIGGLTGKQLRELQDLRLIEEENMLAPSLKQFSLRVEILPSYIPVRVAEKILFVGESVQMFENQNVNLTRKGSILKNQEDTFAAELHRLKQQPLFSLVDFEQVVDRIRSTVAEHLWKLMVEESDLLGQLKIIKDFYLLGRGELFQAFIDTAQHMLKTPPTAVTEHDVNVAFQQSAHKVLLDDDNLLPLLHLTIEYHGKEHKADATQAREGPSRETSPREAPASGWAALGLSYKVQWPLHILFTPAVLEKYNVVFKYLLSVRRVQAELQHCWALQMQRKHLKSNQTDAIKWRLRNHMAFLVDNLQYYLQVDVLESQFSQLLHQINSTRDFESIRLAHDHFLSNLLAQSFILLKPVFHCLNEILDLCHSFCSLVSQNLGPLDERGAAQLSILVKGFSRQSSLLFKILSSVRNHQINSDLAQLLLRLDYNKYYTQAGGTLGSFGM
UniProt Q15386: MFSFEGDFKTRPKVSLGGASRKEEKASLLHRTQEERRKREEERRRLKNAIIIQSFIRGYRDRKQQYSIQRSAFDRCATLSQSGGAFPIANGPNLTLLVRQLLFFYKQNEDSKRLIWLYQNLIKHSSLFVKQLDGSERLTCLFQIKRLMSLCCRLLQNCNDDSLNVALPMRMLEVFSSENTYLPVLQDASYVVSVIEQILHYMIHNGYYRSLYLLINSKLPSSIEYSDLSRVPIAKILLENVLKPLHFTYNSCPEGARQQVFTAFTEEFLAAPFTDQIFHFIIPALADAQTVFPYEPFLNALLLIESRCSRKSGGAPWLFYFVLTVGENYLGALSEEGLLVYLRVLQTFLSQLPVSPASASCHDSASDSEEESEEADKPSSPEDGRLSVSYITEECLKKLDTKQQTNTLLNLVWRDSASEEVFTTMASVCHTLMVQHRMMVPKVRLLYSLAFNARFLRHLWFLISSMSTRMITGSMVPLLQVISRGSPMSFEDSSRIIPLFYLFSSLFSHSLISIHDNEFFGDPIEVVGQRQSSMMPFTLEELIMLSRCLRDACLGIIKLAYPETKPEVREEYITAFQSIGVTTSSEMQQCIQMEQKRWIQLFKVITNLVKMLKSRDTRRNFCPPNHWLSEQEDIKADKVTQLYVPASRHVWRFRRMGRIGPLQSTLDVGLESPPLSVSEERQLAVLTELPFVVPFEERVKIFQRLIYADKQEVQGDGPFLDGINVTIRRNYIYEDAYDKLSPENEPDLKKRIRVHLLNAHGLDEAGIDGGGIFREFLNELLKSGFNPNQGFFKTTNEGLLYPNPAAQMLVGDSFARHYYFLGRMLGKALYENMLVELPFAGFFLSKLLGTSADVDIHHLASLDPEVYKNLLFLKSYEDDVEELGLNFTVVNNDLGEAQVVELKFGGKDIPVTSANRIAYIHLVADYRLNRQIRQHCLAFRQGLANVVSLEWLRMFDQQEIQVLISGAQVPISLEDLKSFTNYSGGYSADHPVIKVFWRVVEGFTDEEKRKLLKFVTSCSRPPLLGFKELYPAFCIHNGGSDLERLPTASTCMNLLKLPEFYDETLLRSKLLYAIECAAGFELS
UniProt Q96B02: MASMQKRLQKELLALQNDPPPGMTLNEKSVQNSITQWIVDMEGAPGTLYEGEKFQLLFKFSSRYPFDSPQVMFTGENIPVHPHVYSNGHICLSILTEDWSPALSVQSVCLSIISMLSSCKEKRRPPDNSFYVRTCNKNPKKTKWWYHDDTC
UniProt Q96RT8, whole entry, looked up: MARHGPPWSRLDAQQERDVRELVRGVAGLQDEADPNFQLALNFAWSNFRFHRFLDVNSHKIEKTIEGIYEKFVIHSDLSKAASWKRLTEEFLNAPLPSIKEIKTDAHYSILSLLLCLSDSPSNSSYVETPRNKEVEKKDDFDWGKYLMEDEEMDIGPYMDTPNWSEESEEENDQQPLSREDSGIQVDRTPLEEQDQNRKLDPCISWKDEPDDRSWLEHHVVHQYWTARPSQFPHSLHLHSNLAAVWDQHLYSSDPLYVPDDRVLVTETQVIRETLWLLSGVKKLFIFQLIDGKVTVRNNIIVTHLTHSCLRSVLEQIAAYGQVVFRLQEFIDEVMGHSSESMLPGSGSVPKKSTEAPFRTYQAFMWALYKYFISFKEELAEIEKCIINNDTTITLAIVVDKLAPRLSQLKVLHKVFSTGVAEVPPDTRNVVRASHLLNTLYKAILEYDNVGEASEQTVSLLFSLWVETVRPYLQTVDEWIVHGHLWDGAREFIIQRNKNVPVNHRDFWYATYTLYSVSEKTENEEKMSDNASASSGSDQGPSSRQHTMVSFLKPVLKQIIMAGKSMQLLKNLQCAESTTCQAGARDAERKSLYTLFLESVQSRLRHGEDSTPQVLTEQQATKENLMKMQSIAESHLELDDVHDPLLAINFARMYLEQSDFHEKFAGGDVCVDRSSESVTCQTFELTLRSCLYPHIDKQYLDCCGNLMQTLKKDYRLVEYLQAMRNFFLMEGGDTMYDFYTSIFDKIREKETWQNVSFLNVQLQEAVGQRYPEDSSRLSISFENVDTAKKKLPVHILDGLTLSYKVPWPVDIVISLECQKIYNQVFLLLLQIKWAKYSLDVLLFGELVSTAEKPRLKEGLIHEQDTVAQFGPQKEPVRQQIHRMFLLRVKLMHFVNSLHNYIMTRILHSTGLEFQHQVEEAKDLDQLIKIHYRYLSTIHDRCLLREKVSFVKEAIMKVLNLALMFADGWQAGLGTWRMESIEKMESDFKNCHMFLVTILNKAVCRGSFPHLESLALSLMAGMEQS

Legend:
Test in all cases: log2 fold change, soluble protein after heating vs DMSO (PISA); higher = thermal stabilisation; K562 lysate, 10 uM; active = over 0.2 and 3.5 SD of the protein, either way, in both replicates (recomputed)
[1] = compound: C1=CC=C(C=C1)[C@H](COC2=CC3=C(C=C2)NC(=O)N3)NC(=O)C4=CC=CN(C4=O)CC5=CC(=C(C=C5)F)F
How it was run: (§1)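 To prepare the extract, K562 pellets were dounce-homogenised in PBS pH 7.4 with 1 mM MgCl2, giving crude material at 1 mg/mL protein. This was treated with 10 μM compound for 30 min, then heated in aliquots for 3 min over 48°C-58°C before pooling and addition of NP-40 to 0.5% at 4°C. Centrifugation at 21,000xg for 90 min left soluble protein in the supernatant, which TMTpro 16plex LC-MS/MS quantified with equalised channel sums. Results are log-two fold changes in thermal stability compared with solvent controls, from duplicates.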

[2] = compound: CC1=C(SC2=C1C(=N[C@H](C3=NN=C(N32)C)CC(=O)N)C4=CC=C(C=C4)Cl)C
How it was run: as §1

[3] = compound: CC1=C2C(=CC=C1)N=C(N(C2=O)C3=CC=CC=C3C)CN4C=NC5=C(N=CN=C54)N
How it was run: as §1

[4] = compound: Cc1sc2c(c1C)C(c1ccc(Cl)cc1)=N[C@@H](CC(=O)OC(C)(C)C)c1nnc(C)n1-2
How it was run: as §1

[5] = compound: c1ccc([C@@H]2C[C@H]2NC2CCNCC2)cc1
How it was run: as §1

Measured: log2 fold change

UBE2J2 (UniProt Q8N2K1)
inactive: [1] -0.089 | [2] -0.017 | [3] -0.029 | [4] -0.141 | [5] 0.046

TXNL1 (UniProt O43396)
inactive: [1] -0.002 | [2] 0.008 | [3] -0.015 | [4] -0.009 | [5] 0.014

TTN isoform 12 (UniProt Q8WZ42)
inactive: [1] -0.028 | [2] -0.006 | [3] -0.04 | [4] -0.031 | [5] -0.205

TUBG1 (UniProt P23258)
inactive: [1] 0 | [2] 0.051 | [3] 0.011 | [4] 0.021 | [5] 0.067

UBA1 (UniProt P22314)
inactive: [1] -0.018 | [2] 0.043 | [3] 0 | [4] 0.045 | [5] 0.04

TUBGCP4 (UniProt Q9UGJ1)
inactive: [1] -0.005 | [2] 0.019 | [3] 0.012 | [4] -0.027 | [5] -0.007

UBE3C (UniProt Q15386)
inactive: [1] -0.027 | [2] -0.04 | [3] 0.127 | [4] 0.066 | [5] 0.039

UBE2W isoform 3 (UniProt Q96B02)
inactive: [1] -0.13 | [2] 0.063 | [3] -0.199

TUBGCP5 (UniProt Q96RT8)
inactive: [1] -0.209 | [2] 0.088 | [3] 0.039 | [4] -0.093 | [5] 0.071
